# Laboratory results reported in PubChem BioAssay AID493014 (National Center for Advancing Translational Sciences (NCATS), 2011).
# This is one part of the list. Shown are side measurements of this screen, not its main read-out; they come without a call. The list favours compounds with an active or inconclusive main result. Potencies come from curve fits of mixed quality, noted in brackets.
# Assay: qHTS Assay to Find Inhibitors of Chronic Active B-Cell Receptor Signaling
# Settings: ABC-DLBCL IkBa-CBG/CBR reporter, luminescence ratio (green luciferase fused to IkBa over red control in TMD8 lymphoma cells), 4 h
# In short: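 Cell line TMD8 (human ABC DLBCL), stably expressing tet-inducible CBG68-IkBa fusion and CBR; IMDM/0.5% FBS; cpd up to 46 uM; dox induction, 4 h, 37C/5% CO2; dual luminescence; green/red ratio; MG132 control.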
# [1] = measured here: CBR red luminescence, cell number
# [2] = measured here: IkBa-CBG green luminescence
SMILES,AC50 [1],AC50 [2]
c1ccc(SCc2nc(-c3ccccn3)no2)cc1,"0.731 µM [falling, full curve, poor fit]",–
CC(C)C[C@H](NC(=O)N1CCn2c1nc1ccccc12)C(=O)N[C@@H](C(=O)O)c1ccccc1,"3.16 µM [rising, full curve, poor fit]",–
COC(=O)CNc1c(-c2ccccc2)nc2ccc(Br)cn12,"4.61 µM [falling, partial curve]",–
CC(C)(C)c1ccc(C(=O)OCCNC(=O)c2c(Cl)nc3ccccn23)cc1,"1.46 µM [falling, partial curve, poor fit]",–
CCN(c1ccccc1)S(=O)(=O)c1cc(C(=O)Nc2ccc(F)c(F)c2)ccc1F,"29.1 µM [falling, single point]","6.51 µM [rising, partial curve]"
O=C(Nc1ccc(Br)cc1)c1ccc(F)c(S(=O)(=O)NCc2cccs2)c1,"16.4 µM [falling, partial curve]",–
CCCCCNC(=O)c1cccnc1SCC(=O)Nc1ccccc1OC,–,"25.9 µM [falling, partial curve, poor fit]"
CC(=O)N1c2c(cc(Br)cc2S(=O)(=O)N2CCOCC2)CC1C (configuration not stated),"29.1 µM [rising, single point]",–
O=C(CSc1nnc(-c2ccccn2)o1)Nc1ccccc1C(F)(F)F,"25.1 µM [falling, single point]",–
O=C(CCC(=O)Nc1ccccc1)NNC(=O)COc1ccccc1,"5.8 µM [rising, full curve]",–
CC(=O)Nc1cccc(C(=O)N2CCN(S(=O)(=O)Cc3ccccc3)CC2)c1,"0.0184 µM [falling, full curve, poor fit]",–
COc1ccccc1N1CCN(C(=O)c2cccc(S(=O)(=O)N3CCCCCC3)c2)CC1,"2.06 µM [rising, partial curve, poor fit]",–
COc1nc(Nc2ccc([N+](=O)[O-])cc2)nc(NC(C)C)n1,–,"4.61 µM [rising, partial curve, poor fit]"
N=c1sccn1CC(=O)Nc1ccc([N+](=O)[O-])cc1Cl,"35.5 µM [falling, single point]",–
Cc1ccc2c(CC(=O)Nc3sccc3C(N)=O)coc2c1,"0.447 µM [falling, full curve, poor fit]",–
O=C(Nc1nccs1)c1ccc(-c2ccc([N+](=O)[O-])cc2)o1,"8.91 µM [falling, partial curve, poor fit]",–
CN[C@H]1CCc2cc(OC)c(OC)c(OC)c2-c2ccc(N(C)CC(OC)OC)c(=O)cc21,"28.2 µM [rising, single point]","17.8 µM [falling, partial curve]"
CC1CC(C)CN(CCCNC(=O)c2ccc3c(c2)ncn3C2CCCC2)C1 (configuration not stated),"12.6 µM [rising, partial curve, poor fit]",–
O=C(Nc1nc(-c2cc(F)ccc2F)cs1)c1cccc(N2C(=O)CCC2=O)c1,"18.4 µM [falling, partial curve, poor fit]",–
COc1ccc(/C=N\NC(=O)c2ccccc2Br)cc1COc1c(F)c(F)cc(F)c1F,"17.8 µM [falling, single point]",–

# Record cards, as listed above:
# O=C(CCC(=O)Nc1ccccc1)NNC(=O)COc1ccccc1 as listed: AC50 [1]: 5.8 µM [rising, full curve]
# CC(=O)N1c2c(cc(Br)cc2S(=O)(=O)N2CCOCC2)CC1C (configuration not stated) as listed: AC50 [1]: 29.1 µM [rising, single point]

# More records

SMILES,AC50 [1],AC50 [2]
Cc1cc(N/N=C/c2c(O)ccc3ccccc23)nc(-c2ccccc2O)n1,"0.651 µM [falling, partial curve, poor fit]",–
Cc1cc(NC(=O)Nc2ccccc2F)ccc1Br,"15.8 µM [falling, partial curve, poor fit]",–
O=C(N/N=C/c1cccc(NC(=O)c2ccc(Cl)cc2)c1)c1ccc(O)cc1,"3.16 µM [falling, partial curve, poor fit]",–
COc1ccc(-c2nc3cc(C)ccn3c2NCc2ccc3c(c2)OCO3)cc1,"0.1 µM [rising, full curve, poor fit]",–
Nc1nc(N)nc(-c2cc(O)ccc2O)n1,"8.2 µM [falling, partial curve, poor fit]","5.8 µM [rising, partial curve, poor fit]"
COc1ccccc1N1CCN(C(=O)CN2C(=O)c3ccccc3S2(=O)=O)CC1,"15.8 µM [rising, partial curve]",–
COc1cc(C(=O)Nc2ccccc2N2CCOCC2)ccc1OCC(=O)N1CCOCC1,"0.461 µM [rising, full curve, poor fit]",–
O=C(CSCc1ccccc1)NNC(=S)Nc1cccc(Cl)c1Cl,"16.4 µM [falling, single point]",–
COc1ccc(NC(=O)C23CCC(C)(C(=O)C2)C3(C)C)cc1 (configuration not stated),"6.51 µM [rising, single point]",–
COc1ccc(CNCCSc2nnnn2C)cc1OC,"29.1 µM [rising, single point]",–
Cc1ccnc2c(N3C(=O)C4C5c6ccccc6C(c6ccccc65)C4C3=O)cccc12 (configuration not stated),"22.4 µM [falling, single point]",–
Cc1c(C(=O)OCCN2CCCCC2)oc2ccccc12,"7.94 µM [rising, partial curve]",–
CC(C)C(=O)NC(c1ccc([N+](=O)[O-])cc1)c1c(O)ccc2ccccc12 (configuration not stated),"12.6 µM [falling, partial curve]",–
Cc1cccc(N)c1SC1CCCCC1O (configuration not stated),"14.6 µM [rising, partial curve, poor fit]",–
NC(N)=NN=C1c2ccccc2-c2ccccc21,"3.98 µM [falling, full curve, poor fit]",–
COc1ccccc1NC(=O)C(C)OC(=O)/C=C/c1ccc2ccccc2n1 (configuration not stated),"23.1 µM [falling, partial curve, poor fit]",–
O=c1nccc(N/N=C/c2ccccc2O)[nH]1,"14.1 µM [falling, single point]",–
CC(C)(C)n1nc2c(c1NC(=O)COc1ccc3ccccc3c1)CS(=O)C2 (configuration not stated),"6.51 µM [falling, single point]",–
COc1ccccc1N1CCN(C(=O)c2ccc3[nH]c4c(c3c2)CCCC4)CC1,"8.2 µM [falling, partial curve]",–
